In patent US20160310607A1, “CELL TRANSPORT” (CUPID PEPTIDE COMPANY LIMITED, priority 2013, published 2016):
At least one peptide structure holds a part that was inferred or is arguable (an end, a ring closure or a residue). Residues, ends and D or L forms follow the SMILES beside them. *: point of attachment. FITC = O=C1OC2(c3ccc(O)cc3Oc3cc(O)ccc32)c2ccc(NC(=S)*)cc21

What was measured:
Format in all cases: cell-based
[1] = tested on: human embryonic kidney cells; assay: Permeation of fluorescently labelled peptide into human embryonic kidney cells; conditions: FIG. 1: FITC-labelled peptide 10 μM, 1 hour
[2] = tested on: human fibroblasts; assay: Permeation of fluorescently labelled peptide into human fibroblasts; conditions: human fibroblast cell; FIG. 1: FITC-labelled peptide 10 μM, 1 hour
[3] = tested on: Dictyostelium discoideum amoeba cells; assay: Permeation of FITC-labelled peptides into cultured Dictyostelium cells (fluorescence microscopy); conditions: FITC-labelled peptide, 10 micromolar, 1 hour
Protocol: Peptides were labelled with Fluorescein isothiocyanate (FITC) using a FITC labeling kit as per instructions (Pierce, UK). When added to cell cultures the labeled peptides were visualized using a fluorescent microscope by exciting the FITC with a 488 nm spectral line, argon-ion laser (Excitation wavelength of 494 nm and an Emission wavelength of 518 nm).
AX2 wild type Dictyostelium cells were grown on SM agar plates seeded with Aerobacter aerogenes bacteria (also known as Klebsiella aerogenes) as a food source.
Cupid A ([…]) and Cupid B ([…]) were chemically synthesized labelled with FITC at the amino terminal. The peptides were added to cultured eukaryotic cells of Dictyostelium discoideum amoeba for varying amounts of time up to 2 hours. Cells were then washed and prepared for examination under a fluorescent microscope (FIG. 1). The time courses of permeation were compared to the class 3 CPP, the Antennapedia peptide, pANT which was also labelled with FITC in chemical synthesis (FIG. 2).

CC[C@H](C)[C@H](NC(=O)[C@H](CCC(N)=O)NC(=O)[C@@H](NC(=O)[C@H](CCCNC(=N)N)NC(=O)[C@H](CCCNC(=N)N)NC(=S)Nc1ccc2c(c1)C(=O)OC21c2ccc(O)cc2Oc2cc(O)ccc21)C(C)C)C(=O)N[C@@H](Cc1c[nH]c2ccccc12)C(=O)N[C@@H](Cc1ccccc1)C(=O)N[C@@H](CCC(N)=O)C(=O)N[C@@H](CC(N)=O)C(=O)N[C@@H](CCCCN)C(=O)N[C@@H](CCCNC(=N)N)C(=O)N[C@@H](C)C(=O)N[C@@H](CCCCN)C(=O)N[C@H](C(=O)N[C@@H](CCCCN)C(=O)N[C@@H](CCCNC(=N)N)C(=O)O)C(C)C [FITC-Cupid B] ({FITC}-RRVQIWFQNKRAKVKR-OH)
entering cultured cells: cell permeation [1] | cell permeation [2] | cell permeation (fluorescence microscopy) [3]
